Data on 1 molecule can be found in paper PMC11148069.

Amino acid sequences for entries named in this document (tags omitted). Residues count along the entry.
UniProt P52948, residues 1-880: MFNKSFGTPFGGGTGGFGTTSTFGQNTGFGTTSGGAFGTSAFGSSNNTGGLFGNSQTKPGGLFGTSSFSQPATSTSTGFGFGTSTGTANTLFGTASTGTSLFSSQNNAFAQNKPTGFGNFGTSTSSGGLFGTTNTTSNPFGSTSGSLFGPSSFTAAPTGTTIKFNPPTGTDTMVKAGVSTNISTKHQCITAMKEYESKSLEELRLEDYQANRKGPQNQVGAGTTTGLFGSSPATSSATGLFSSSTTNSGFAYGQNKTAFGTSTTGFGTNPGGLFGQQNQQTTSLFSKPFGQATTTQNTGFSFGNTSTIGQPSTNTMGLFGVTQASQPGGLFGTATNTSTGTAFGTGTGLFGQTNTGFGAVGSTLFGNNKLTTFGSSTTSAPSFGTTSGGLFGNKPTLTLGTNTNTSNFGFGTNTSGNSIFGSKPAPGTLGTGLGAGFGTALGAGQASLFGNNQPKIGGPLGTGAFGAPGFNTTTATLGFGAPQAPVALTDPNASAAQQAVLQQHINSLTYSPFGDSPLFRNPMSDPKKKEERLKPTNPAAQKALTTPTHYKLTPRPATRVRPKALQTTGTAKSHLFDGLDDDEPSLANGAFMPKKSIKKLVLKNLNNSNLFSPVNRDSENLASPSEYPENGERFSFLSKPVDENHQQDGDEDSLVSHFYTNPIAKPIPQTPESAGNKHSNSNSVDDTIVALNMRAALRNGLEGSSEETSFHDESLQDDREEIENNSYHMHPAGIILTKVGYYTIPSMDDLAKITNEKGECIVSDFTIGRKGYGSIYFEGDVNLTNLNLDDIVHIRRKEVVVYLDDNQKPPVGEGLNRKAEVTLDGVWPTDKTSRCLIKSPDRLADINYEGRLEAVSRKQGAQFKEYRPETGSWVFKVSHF

These are yes or no findings as the source states them, for the method shown. In cells and extracts the contact can be indirect. Some binding calls cover weakened binding; strength is not graded here.

For this assay, the target named is human Nup98, endogenous (human (endogenous in HeLa)) (UniProt P52948). Briefly: pull-down; proteins co-purifying with the Nup that was captured by the immobilised nanobody from HeLa lysate or Xenopus egg extract; SDS-PAGE/Coomassie, identities confirmed by mass spectrometry.

B1: human Gle2, endogenous (protein, UniProt P78406 1-368)
chain: MSLFGTTSGFGTSGTSMFGSATTDNHNPMKDIEVTSSPDDSIGCLSFSPPTLPGNFLIAGSWANDVRCWEVQDSGQTIPKAQQMHTGPVLDVCWSDDGSKVFTASCDKTAKMWDLSSNQAIQIAQHDAPVKTIHWIKAPNYSCVMTGSWDKTLKFWDTRSSNPMMVLQLPERCYCADVIYPMAVVATAERGLIVYQLENQPSEFRRIESPLKHQHRCVAIFKDKQNKPTGFALGSIEGRVAIHYINPPNPAKDNFTFKCHRSNGTNTSAPQDIYAVNGIAFHPVHGTLATVGSDGRFSFWDKDARTKLKTSEQLDQPISACCFNHNGNIFAYASSYDWSKGHEFYNPQKKNYIFLRNAAEELKPRNKK
For the molecule B1, the binding entry is recorded as “binds”.
